Reference: the supplement of paper PMC8256030
Values joined by “and” are separate entries in the source; they are usually repeats but may differ in a detail not shown here. Equal entries are not always repeated. This is one part of the list. Single values are uncertain here, since repeats match poorly.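 HEK293T cells were given each compound shortly before transfection with a reporter in which red mCherry is followed by the SARS-CoV-2 frameshift element and then GFP in the −1 frame, so GFP appears only after frameshifting.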

These compounds were tested on HEK293T (assay: percent viability (nuclei count) relative to control; higher = more viable cells). Details: 10 µM; 24 h.
In the case of `CN1C(=N)N(c2ccccc2)CC1=O` [azolimine], the percent viability is reported as 328%.
`CC(N/C(=N\C#N)Nc1ccncc1)C(C)(C)C` (configuration not stated) [Pinacidil] showed a percent viability of 332%.
With `CC1(C)CCC(C)(C)c2cc(NC(=O)c3ccc(C(=O)O)cc3)ccc21` [tamibarotene] the percent viability was 277%.
`COc1c(O[C@@H]2O[C@H](CO)[C@@H](O)[C@H](O)[C@H]2O)cc2c(c1OC)-c1ccc(SC)c(=O)cc1[C@@H](NC(C)=O)CC2` [thiocolchicoside] showed a percent viability of 56.6%.
`Nc1ccc(S(=O)(=O)c2cnc(N)s2)cc1` [thiazosulfone] showed a percent viability of 110%.
Work on `CO/N=C(\C(=O)N[C@@H]1C(=O)N2C(C(=O)O)=C(CSc3nc(=O)c(O)nn3C)CS[C@H]12)c1csc(N)n1` yielded a percent viability of 304%.
`C[C@H]1O[C@@H](O[C@H]2[C@@H](O)C[C@H](O[C@H]3[C@@H](O)C[C@H](O[C@H]4CC[C@@]5(C)[C@H](CC[C@@H]6[C@@H]5C[C@@H](O)[C@]5(C)[C@@H](C7=CC(=O)OC7)CC[C@]65O)C4)O[C@@H]3C)O[C@@H]2C)C[C@H](O)[C@@H]1O` was tested, and the percent viability was 2.64%.
With `C=C[C@H]1CN2CC[C@H]1C[C@H]2[C@H](O)c1ccnc2ccc(OC)cc12` the percent viability was 200% and 189%.
`CC(=O)Oc1cc(C(F)(F)F)ccc1C(=O)O` [triflusal] was tested, and the percent viability was 78.5%.
`Oc1cc(O)c(Cl)cn1` [gimeracil] gave a percent viability of 240%.
Compound `COc1ccc(O)cc1` [mequinol] has a percent viability of 179%.
`CC1(C)O[C@@H]2C[C@H]3[C@@H]4CCC5=CC(=O)C=C[C@]5(C)[C@H]4[C@@H](O)C[C@]3(C)[C@]2(C(=O)CO)O1` [desonide] gave a percent viability of 123%.
